{"source": "patent US20020052365A1", "about": "“Selective anxiolytic therapeutic agents” (priority 2000, published 2002)", "key": {"[1]": {"tested_on": "diazepam-insensitive [3H]Ro15-4513 binding sites in α2(H101R) mice", "test": "[3H]Ro15-4513 binding to diazepam-insensitive sites, α2(H101R) mouse brain"}, "[2]": {"tested_on": "diazepam-insensitive [3H]Ro15-4513 binding sites in α3(H126R) mice", "test": "[3H]Ro15-4513 binding to diazepam-insensitive sites, α3(H126R) mouse brain"}, "[3]": {"tested_on": "diazepam-insensitive [3H]Ro15-4513 binding sites (α4 and α6 GABAA receptors)", "test": "[3H]Ro15-4513 binding to diazepam-insensitive sites, wild type mouse brain", "conditions": "wild type mice"}}, "data": [{"smiles": "CCOC(=O)c1ncn2c1CN(C)C(=O)c1cc(N=[N+]=[N-])ccc1-2", "note": "[Ro15-4513]", "values": [{"measurement": "number of diazepam-insensitive [3H]Ro15-4513 binding sites", "setting": "[1]", "result": 17, "unit": "%"}, {"measurement": "Bmax of diazepam-insensitive [3H]Ro15-4513 binding", "setting": "[1]; n=3", "result": "0.26±0.01", "unit": "pmol/mg protein"}, {"measurement": "number of diazepam-insensitive [3H]Ro15-4513 binding sites", "setting": "[2]", "result": 11, "unit": "%"}, {"measurement": "number of diazepam-insensitive [3H]Ro15-4513 binding sites", "setting": "[3]", "result": 5, "unit": "%"}]}]}
